In the supplement of paper PMC4604168 (melanoma cell lines):
Some of the results follow. Many values rest on one well or one pass, so single values are uncertain.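 The apoptosis fraction was the count of cleaved-PARP antibody-stained nuclei relative to all DNA-stained nuclei, imaged in 1,536-well plates. Screening doses were set so most cells survived, and baseline and induced cleaved-PARP levels vary greatly across cell lines.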

Assays:
Assay in all cases: cleaved PARP positive nuclei fraction relative to DMSO control; melanoma cells; higher = more apoptosis
Conditions in all cases: library dose: low library concentration; 72 h
[1] = tested on: 501Mel
[2] = tested on: A101D
[3] = tested on: A2058
[4] = tested on: A375
[5] = tested on: C32
[6] = tested on: CBRC008 (line from a melanoma biopsy)
[7] = tested on: CBRC013 (line from a melanoma biopsy)
[8] = tested on: CBRC014 (line from a melanoma biopsy)
[9] = tested on: CBRC016 (line from a melanoma biopsy)
[10] = tested on: CBRC017 (line from a melanoma biopsy)
[11] = tested on: COLO792
[12] = tested on: COLO800
[13] = tested on: COLO829
[14] = tested on: G361
[15] = tested on: IPC-298
[16] = tested on: IST-MEL1
[17] = tested on: LB2518-MEL
[18] = tested on: LOXIMVI
[19] = tested on: MEL-HO

Compound | cleaved PARP positive nuclei fraction [1] [%] | cleaved PARP positive nuclei fraction [2] [%] | cleaved PARP positive nuclei fraction [3] [%] | cleaved PARP positive nuclei fraction [4] [%] | cleaved PARP positive nuclei fraction [5] [%] | cleaved PARP positive nuclei fraction [6] [%] | cleaved PARP positive nuclei fraction [7] [%] | cleaved PARP positive nuclei fraction [8] [%] | cleaved PARP positive nuclei fraction [9] [%] | cleaved PARP positive nuclei fraction [10] [%] | cleaved PARP positive nuclei fraction [11] [%] | cleaved PARP positive nuclei fraction [12] [%] | cleaved PARP positive nuclei fraction [13] [%] | cleaved PARP positive nuclei fraction [14] [%] | cleaved PARP positive nuclei fraction [15] [%] | cleaved PARP positive nuclei fraction [16] [%] | cleaved PARP positive nuclei fraction [17] [%] | cleaved PARP positive nuclei fraction [18] [%] | cleaved PARP positive nuclei fraction [19] [%]
CC(C)C[C@H](NC(=O)[C@H](Cc1ccccc1)NC(=O)c1cnccn1)B(O)O [Bortezomib] + NC(=O)Nc1cc(-c2cccc(F)c2)sc1C(=O)N[C@H]1CCCNC1 [AZD7762] (first compound 0.001 µM, partner dose 0.02 µM) | 185 | 234 | 141 | 131 | 134 | 1200 | 82.3 | 127 | 732 | 159 | 58.5 | 194 | 181 | 1330 | 105 | 30.3 | 209 | 25.7 | 137
CO[C@H]1C[C@@H]2CC[C@@H](C)[C@@](O)(O2)C(=O)C(=O)N2CCCC[C@H]2C(=O)O[C@H]([C@H](C)C[C@@H]2CC[C@@H](OCCO)[C@H](OC)C2)CC(=O)[C@H](C)/C=C(\C)[C@@H](O)[C@@H](OC)C(=O)[C@H](C)C[C@H](C)/C=C/C=C/C=C/1C [everolimus] + CN(NC(=O)CC(=O)NN(C)C(=S)c1ccccc1)C(=S)c1ccccc1 [STA4783] (first compound 0.02 µM, partner dose 0.006 µM) | 330 | 429 | 184 | 1760 | 178 | 1800 | 371 | 411 | 203 | 137 | 169 | 611 | 240 | 68.9 | 123 | 142 | 152 | 36 | 184
C=C(c1ccc(C(=O)O)cc1)c1cc2c(cc1C)C(C)(C)CCC2(C)C [Bexarotene] + O=C(Nc1cccc(Cl)c1)Nc1ncc(CCNc2ncnc3ccsc23)s1 [SNS314] (first compound 2 µM, partner dose 0.0008 µM) | 99.1 | 159 | 71.9 | 103 | 72.1 | 184 | 116 | 110 | 64 | 114 | 90.2 | 69.3 | 163 | 58.2 | 48.4 | 116 | 53.4 | 68 | 33.5
C=C(c1ccc(C(=O)O)cc1)c1cc2c(cc1C)C(C)(C)CCC2(C)C [Bexarotene] + CO[C@@H]1[C@H](N(C)C(=O)c2ccccc2)C[C@H]2O[C@]1(C)n1c3ccccc3c3c4c(c5c6ccccc6n2c5c31)C(=O)NC4 [Midostaurin] (first compound 2 µM, partner dose 0.08 µM) | 91.4 | 84.6 | 93.8 | 220 | 101 | 216 | 109 | 107 | 239 | 100 | 112 | 50.6 | 87.2 | 91.6 | 47.8 | 69.2 | 50.6 | 35.6 | 79
CNC(=O)c1cc(Oc2ccc(NC(=O)Nc3ccc(Cl)c(C(F)(F)F)c3)cc2)ccn1 [sorafenib] + O=C(CCCCCCC(=O)Nc1ccccc1)NO [vorinostat] (first compound 0.4 µM, partner dose 0.08 µM) | 77.2 | 79.4 | 76.4 | 60.3 | 124 | 89.5 | 89.9 | 77.3 | 44.9 | 86.7 | 47.3 | 119 | 53.5 | 162 | 49.6 | 104 | 42.6 | 26.5 | 62.5
CO[C@H]1C[C@@H]2CC[C@@H](C)[C@@](O)(O2)C(=O)C(=O)N2CCCC[C@H]2C(=O)O[C@H]([C@H](C)C[C@@H]2CC[C@@H](OCCO)[C@H](OC)C2)CC(=O)[C@H](C)/C=C(\C)[C@@H](O)[C@@H](OC)C(=O)[C@H](C)C[C@H](C)/C=C/C=C/C=C/1C [everolimus] + C=CCn1c(=O)c2cnc(Nc3ccc(N4CCN(C)CC4)cc3)nc2n1-c1cccc(C(C)(C)O)n1 [MK1775] (first compound 0.02 µM, partner dose 0.02 µM) | 146 | 138 | 154 | 3340 | 87 | 137 | 187 | 78.7 | 38.8 | 109 | 243 | 147 | 182 | 187 | 141 | 123 | 64.4 | 303 | 84.9
CN1CCN(c2ccc3nc(-c4c(N)c5c(F)cccc5[nH]c4=O)[nH]c3c2)CC1 [Dovitinib] + C[C@@H]1CCN(C(=O)CC#N)C[C@@H]1N(C)c1ncnc2[nH]ccc12 [CP690550] (first compound 0.1 µM, partner dose 1 µM) | 87.7 | 85.2 | 174 | 255 | 98.5 | 62.2 | 110 | 89.4 | 162 | 96.3 | 98.7 | 43.1 | 43.8 | 48.3 | 46.9 | 49 | 46.3 | 104 | 94.3
CCCS(=O)(=O)Nc1ccc(F)c(C(=O)c2c[nH]c3ncc(Cl)cc23)c1F + NCC(=O)Nc1ccc(-n2nc(C(F)(F)F)cc2-c2ccc3c(ccc4ccccc43)c2)cc1 [OSU03012] (first compound 0.08 µM, partner dose 1 µM) | 1580 | 40.8 | 28.2 | 10000 | 45 | 93.8 | 213 | 96.4 | 180 | 91.1 | 73.5 | 80.7 | 60.6 | 101 | 73.7 | 111 | 42.3 | 103 | 35.8
C=C(c1ccc(C(=O)O)cc1)c1cc2c(cc1C)C(C)(C)CCC2(C)C [Bexarotene] + COc1cc2c(Oc3ccc4[nH]c(C)cc4c3F)ncnc2cc1OCCCN1CCCC1 [cediranib] (first compound 2 µM, partner dose 0.4 µM) | 173 | 89 | 197 | 29.1 | 181 | 50 | 135 | 110 | 164 | 96.8 | 46.9 | 45.3 | 185 | 104 | 83.6 | 131 | 96.8 | 50.3 | 110
Nc1nc(F)nc2c1ncn2[C@@H]1O[C@H](CO)[C@@H](O)[C@@H]1O [fludarabine] + CO[C@@H]1[C@H](N(C)C(=O)c2ccccc2)C[C@H]2O[C@]1(C)n1c3ccccc3c3c4c(c5c6ccccc6n2c5c31)C(=O)NC4 [Midostaurin] (first compound 0.2 µM, partner dose 0.08 µM) | 2400 | 96.6 | 43.5 | 6200 | 88.6 | 82.3 | 620 | 96.2 | 152 | 102 | 136 | 83.8 | 147 | 105 | 44.5 | 118 | 39.3 | 266 | 317
CCCS(=O)(=O)Nc1ccc(F)c(C(=O)c2c[nH]c3ncc(Cl)cc23)c1F + O=C(O)c1ccc(-c2c[nH]c3ncc(-c4ccccc4)cc23)cc1C1CCCC1 [GSK650394] (first compound 0.08 µM, partner dose 0.16 µM) | 88.6 | 99.9 | 78.3 | 145 | 83.5 | 516 | 80.7 | 146 | 41.7 | 144 | 169 | 63.6 | 133 | 140 | 96.5 | 167 | 175 | 349 | 41.5
C=C(c1ccc(C(=O)O)cc1)c1cc2c(cc1C)C(C)(C)CCC2(C)C [Bexarotene] + CC(C)(C)c1cnc(CSc2cnc(NC(=O)C3CCNCC3)s2)o1 [SNS-032] (first compound 2 µM, partner dose 0.01 µM) | 93.2 | 35.8 | 52.9 | 99.6 | 127 | 61.1 | 113 | 95.5 | 167 | 99.6 | 112 | 62.1 | 160 | 94.1 | 58.5 | 53.8 | 96.8 | 52.3 | 75.7
CN1CCN(c2ccc3nc(-c4c(N)c5c(F)cccc5[nH]c4=O)[nH]c3c2)CC1 [Dovitinib] + O=C(Nc1cccc(Cl)c1)Nc1ncc(CCNc2ncnc3ccsc23)s1 [SNS314] (first compound 0.1 µM, partner dose 0.0008 µM) | 119 | 77.9 | 66.7 | 65 | 93.3 | 192 | 86.5 | 73.1 | 42.6 | 75.9 | 97.1 | 94 | 73.3 | 78 | 192 | 94.9 | 60.9 | 218 | 121
C=C(c1ccc(C(=O)O)cc1)c1cc2c(cc1C)C(C)(C)CCC2(C)C [Bexarotene] + CC1(C)NC(=O)N(c2ccc([N+](=O)[O-])c(C(F)(F)F)c2)C1=O [nilutamide] (first compound 2 µM, partner dose 1 µM) | 155 | 160 | 62.5 | 65.3 | 202 | 171 | 145 | 117 | 175 | 104 | 162 | 101 | 93.5 | 44.8 | 94.1 | 97 | 142 | 26.6 | 144
C[C@@H](Oc1cc(-c2cnn(C3CCNCC3)c2)cnc1N)c1c(Cl)ccc(F)c1Cl [Crizotinib] + CC(C)(C)c1cnc(CSc2cnc(NC(=O)C3CCNCC3)s2)o1 [SNS-032] (first compound 0.2 µM, partner dose 0.01 µM) | 83.2 | 177 | 117 | 186 | 120 | 137 | 151 | 71.3 | 202 | 90.2 | 178 | 58.7 | 150 | 95.5 | 42.5 | 643 | 57.7 | 840 | 281
Nc1ncn([C@H]2C[C@H](O)[C@@H](CO)O2)c(=O)n1 [decitabine] + COc1cc2c(Oc3ccc4[nH]c(C)cc4c3F)ncnc2cc1OCCCN1CCCC1 [cediranib] (first compound 0.1 µM, partner dose 0.4 µM) | 89.5 | 166 | 148 | 120 | 181 | 123 | 111 | 83.9 | 105 | 85.7 | 77.7 | 41.7 | 141 | 66.7 | 72.9 | 95.9 | 50.9 | 90.7 | 72
Nc1nc(F)nc2c1ncn2[C@@H]1O[C@H](CO)[C@@H](O)[C@@H]1O [fludarabine] + CN(NC(=O)CC(=O)NN(C)C(=S)c1ccccc1)C(=S)c1ccccc1 [STA4783] (first compound 0.2 µM, partner dose 0.006 µM) | 2260 | 44.9 | 197 | 17700 | 109 | 1520 | 429 | 657 | 170 | 195 | 267 | 122 | 147 | 67.7 | 102 | 131 | 136 | 86.1 | 144

Some of the entries so far, tab-delimited.
Compound	cleaved PARP positive nuclei fraction [1] [%]	cleaved PARP positive nuclei fraction [2] [%]	cleaved PARP positive nuclei fraction [3] [%]	cleaved PARP positive nuclei fraction [4] [%]	cleaved PARP positive nuclei fraction [5] [%]	cleaved PARP positive nuclei fraction [6] [%]	cleaved PARP positive nuclei fraction [7] [%]	cleaved PARP positive nuclei fraction [8] [%]	cleaved PARP positive nuclei fraction [9] [%]	cleaved PARP positive nuclei fraction [10] [%]	cleaved PARP positive nuclei fraction [11] [%]	cleaved PARP positive nuclei fraction [12] [%]	cleaved PARP positive nuclei fraction [13] [%]	cleaved PARP positive nuclei fraction [14] [%]	cleaved PARP positive nuclei fraction [15] [%]	cleaved PARP positive nuclei fraction [16] [%]	cleaved PARP positive nuclei fraction [17] [%]	cleaved PARP positive nuclei fraction [18] [%]	cleaved PARP positive nuclei fraction [19] [%]
CC(C)C[C@H](NC(=O)[C@H](Cc1ccccc1)NC(=O)c1cnccn1)B(O)O [Bortezomib] + NC(=O)Nc1cc(-c2cccc(F)c2)sc1C(=O)N[C@H]1CCCNC1 [AZD7762] (first compound 0.001 µM, partner dose 0.02 µM)	185	234	141	131	134	1200	82.3	127	732	159	58.5	194	181	1330	105	30.3	209	25.7	137
C[C@@H](Oc1cc(-c2cnn(C3CCNCC3)c2)cnc1N)c1c(Cl)ccc(F)c1Cl [Crizotinib] + CC(C)(C)c1cnc(CSc2cnc(NC(=O)C3CCNCC3)s2)o1 [SNS-032] (first compound 0.2 µM, partner dose 0.01 µM)	83.2	177	117	186	120	137	151	71.3	202	90.2	178	58.7	150	95.5	42.5	643	57.7	840	281
